We go through 14 molecules from patent US20150141617A1, “PRODUCTION AND PURIFICATION OF ACTIVE EUKARYOTIC FORMYLGLYCINEGENERATING ENZYME (FGE) VARIANTS” (Universität Bielefeld, priority 2013, published 2015).

In the series the test system is HT1080 Tet-On cells. Put plainly: Proteolytic processing of secreted FGE and cleavage motif variants in HT1080 Tet-On cells (western blot). In kind it is cell-based, human. The following applies: for fraction of secreted FGE in the unprocessed form: independent of the expression level; for processing of secreted FGE: 20 ng/mL doxycycline.
The mark [1] stands for this setting: transient expression, medium, western blot.
The mark [2] stands for this setting: transient expression, western blot.

Changes are numbered by the printed parent chain. Names and notes keep the numbering of the source. Values joined by “and” are separate entries in the source; they are usually repeats but may differ in a detail not shown here. Equal values may be shown once. Some entries repeat one wording, which the source may state once for all of them.

B1: FGE: human wild type full length formylglycine generating enzyme with RYSR furin cleavage motif, SEQ ID NO:2 (protein)
chain: ADEFSQEAGTGAGAGSLAGSCGCGTPQRPGAHGSSAAAHRYSREANAPGPVPGERQLAHSKMVPIPAGVFTMGTDDPQIKQDGEAPARRVTIDAFYMDAYEVSNTEFEKFVNSTGYLTEAEKFGDSFVFEGMLSEQVKTNIQQAVAAAPWWLPVKGANWRHPEGPDSTILHRPDHPVLHVSWNDAVAYCTWAGKRLPTEAEWEYSCRGGLHNRLFPWGNKLQPKGQHYANIWQGEFPVTNTGEDGFQGTAPVDAFPPNGYGLYNIVGNAWEWTSDWWTVHHSVEETLNPKGPPSGKDRVKKGGSYMCHRSYCYRYRCAARSQNTPDSSASNLGFRCAADRLPTMDSGRGSHHHHHHH
modifications: cloned matured acitve full length FGE with 6x His tag on C-terminus
For the molecule B1, the “fraction of secreted FGE in the unprocessed form” value (medium) is 25-35% and 20-30%; the “fraction of secreted FGE in the unprocessed form” value (medium, listed as FGE-wt) is reported as 20-30%.

B2: fl-FGE-R69A/R72A: human full length FGE variant, Arginine-69 and Arginine-72 converted to Alanine, non-cleavable furin motif, SEQ ID NO:4 (protein)
chain: B1 chain with R40A, R43A
modifications: double fl FGE variant R69A / R72A
For B2, under setting [1], the “processing of secreted FGE” value was “all secreted FGE was in the unprocessed fl-form”.

B3: RSSR↓E: human FGE variant, Tyr70 substituted with Ser (protein)
chain: B1 chain with Y41S
modifications: FGE fl variant Y70S
notes: human FGE variant, Tyr70 substituted with Ser
On to B3, for which the “cleavage efficiency (fl-FGE/Δ72-FGE ratio in the medium) compared to FGE-wt” value under setting [2] was “minor effect”.

B4: FGE-S71A: human FGE variant with S71A substitution in the furin cleavage motif (protein)
chain: B1 chain with S42A
modifications: FGE fl variant S71A
notes: human FGE variant with S71A substitution in the furin cleavage motif
As for B4, under setting [1], the “processing of secreted FGE” value is listed as “nearly complete processing”.

B5: RARR↓E: human FGE variant with Y70A and S71R substitutions (protein)
chain: B1 chain with Y41A, S42R
modifications: FGE variant Y70A / S71R
notes: human FGE variant with Y70A and S71R substitutions
Take B5: the “cleavage efficiency (fl-FGE/Δ72-FGE ratio in the medium) compared to FGE-wt” value under setting [2] was “virtually all of the secreted FGE was processed”.

B6: RKSR↓E: human FGE variant, Tyr70 at position P3 mutated to Lys (protein)
chain: B1 chain with Y41K
modifications: Y70K FGE fl variant
notes: human FGE variant, Tyr70 at position P3 mutated to Lys
For B6, under setting [2], the “cleavage efficiency (fl-FGE/Δ72-FGE ratio in the medium) compared to FGE-wt” value is recorded as “clear increase in cleavage efficiency”.

B7: FGE-R69A: human FGE variant with R69A substitution in the furin cleavage motif (protein)
chain: B1 chain with R40A, R43A
modifications: FGE fl variant R(Arg) to A (Ala) in position 69
notes: human FGE variant with R69A substitution in the furin cleavage motif
B7: the “processing of secreted FGE” value under setting [1] is recorded as “all secreted FGE was in the unprocessed fl-form”.

B8: RFSR↓E: human FGE variant, Tyr70 at position P3 mutated to Phe (protein)
chain: B1 chain with Y41F
modifications: FGE fl variant Y70F
notes: human FGE variant, Tyr70 at position P3 mutated to Phe
On to B8, for which the “cleavage efficiency (fl-FGE/Δ72-FGE ratio in the medium) compared to FGE-wt” value under setting [2] is listed as “clear increase in cleavage efficiency”.

B9: RYSR^72↓ P: human FGE variant, substitution of Glu73 with proline (protein)
chain: B1 chain with E44P
modifications: FGE variant E73P
notes: human FGE variant, substitution of Glu73 with proline
For the molecule B9, the “cleavage efficiency (fl-FGE/Δ72-FGE ratio in the medium) compared to FGE-wt” value under setting [2] is on record as “reduction in processing”.

B10: FGE-Y70A: human FGE variant with Y70A substitution in the furin cleavage motif (protein)
chain: B1 chain with Y41A
modifications: Y70A FGE variant
notes: human FGE variant with Y70A substitution in the furin cleavage motif
With B10, under setting [1], the “FGE secreted in the fl-form compared to wildtype (wt) FGE” value turned out to be 1.5 fold.

B11: FGE-R72A: human FGE variant with R72A substitution in the furin cleavage motif (protein)
chain: B1 chain with R43A
modifications: FGE R72A variant
notes: human FGE variant with R72A substitution in the furin cleavage motif
Take B11: the “processing of secreted FGE” value under setting [1] was “all secreted FGE was in the unprocessed fl-form”.

B12: RYSK^72↓ E: human FGE motif variant with Lys at position P1 (R72K) (protein)
chain: B1 chain with R43K
modifications: FGE fl variant R72K
With B12, the “cleavage efficiency (fl-FGE/Δ72-FGE ratio in the medium) compared to FGE-wt” value under setting [2] is recorded as “doubling”.

B13: RYRR↓E: human FGE variant, Ser71 at position P2 mutated to arginine (protein)
chain: B1 chain with S42R
modifications: FGE variant S71R
notes: human FGE variant, Ser71 at position P2 mutated to arginine
Consider B13, for which the “cleavage efficiency (fl-FGE/Δ72-FGE ratio in the medium) compared to FGE-wt” value under setting [2] is given as “virtually all of the secreted FGE was processed”.

B14: KYSR^72↓ E: human FGE motif variant with Lys at position P4 (R69K) (protein)
chain: B1 chain with R40K
modifications: FGE (FL) variant R 69 K
In the case of B14, the “cleavage efficiency (fl-FGE/Δ72-FGE ratio in the medium) compared to FGE-wt” value under setting [2] is reported as “doubling”.
